From PMC6015222, “Targeting Phosphopeptide Recognition by the Human BRCA1 Tandem BRCT Domain to Interrupt BRCA1-Dependent Signaling” (Cell Chemical Biology, 2018) come the findings set out here.

Protein sequences, listed by entry. Tags and fused reporters are not part of them. Residues count along the entry.
UniProt P38398, residues 1646-1859: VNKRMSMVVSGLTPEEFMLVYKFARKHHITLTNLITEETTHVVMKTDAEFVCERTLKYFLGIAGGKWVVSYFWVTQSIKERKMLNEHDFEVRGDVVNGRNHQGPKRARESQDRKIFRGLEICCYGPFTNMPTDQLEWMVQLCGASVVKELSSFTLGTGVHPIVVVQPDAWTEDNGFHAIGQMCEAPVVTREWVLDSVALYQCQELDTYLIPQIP

Results are given in words; binding and its absence hold for the method and conditions named. Some results given as binding are weak or reduced against the parent protein; the word gives no strength.

In this experiment the target is human BRCA1 tandem BRCT domain (residues 1646-1859) (human) (UniProt P38398). The experiment in a line: MST; competitive: 20 nM NT-647-labelled protein with 2 uM cognate peptide substrate and compound in 16 dilutions; 20 mM Tris pH 7.4, 200 mM NaCl, 0.05% Tween-20, 2 mM DTT; 22°C; both purified.

In the case of GGSRSTSPTFNK (phosphoserine at residue 7 of the peptide (Ser990 of BACH1); C-terminal amide) [BACH1 phosphopeptide (GGSRSTpSPTFNK-NH2)], the binding result is reported as “binds”.
